## Screening data, single-dose tests

Amino acid sequences for entries named in this document (tags omitted). Residues count along the entry.
UniProt I6X8D2, whole entry: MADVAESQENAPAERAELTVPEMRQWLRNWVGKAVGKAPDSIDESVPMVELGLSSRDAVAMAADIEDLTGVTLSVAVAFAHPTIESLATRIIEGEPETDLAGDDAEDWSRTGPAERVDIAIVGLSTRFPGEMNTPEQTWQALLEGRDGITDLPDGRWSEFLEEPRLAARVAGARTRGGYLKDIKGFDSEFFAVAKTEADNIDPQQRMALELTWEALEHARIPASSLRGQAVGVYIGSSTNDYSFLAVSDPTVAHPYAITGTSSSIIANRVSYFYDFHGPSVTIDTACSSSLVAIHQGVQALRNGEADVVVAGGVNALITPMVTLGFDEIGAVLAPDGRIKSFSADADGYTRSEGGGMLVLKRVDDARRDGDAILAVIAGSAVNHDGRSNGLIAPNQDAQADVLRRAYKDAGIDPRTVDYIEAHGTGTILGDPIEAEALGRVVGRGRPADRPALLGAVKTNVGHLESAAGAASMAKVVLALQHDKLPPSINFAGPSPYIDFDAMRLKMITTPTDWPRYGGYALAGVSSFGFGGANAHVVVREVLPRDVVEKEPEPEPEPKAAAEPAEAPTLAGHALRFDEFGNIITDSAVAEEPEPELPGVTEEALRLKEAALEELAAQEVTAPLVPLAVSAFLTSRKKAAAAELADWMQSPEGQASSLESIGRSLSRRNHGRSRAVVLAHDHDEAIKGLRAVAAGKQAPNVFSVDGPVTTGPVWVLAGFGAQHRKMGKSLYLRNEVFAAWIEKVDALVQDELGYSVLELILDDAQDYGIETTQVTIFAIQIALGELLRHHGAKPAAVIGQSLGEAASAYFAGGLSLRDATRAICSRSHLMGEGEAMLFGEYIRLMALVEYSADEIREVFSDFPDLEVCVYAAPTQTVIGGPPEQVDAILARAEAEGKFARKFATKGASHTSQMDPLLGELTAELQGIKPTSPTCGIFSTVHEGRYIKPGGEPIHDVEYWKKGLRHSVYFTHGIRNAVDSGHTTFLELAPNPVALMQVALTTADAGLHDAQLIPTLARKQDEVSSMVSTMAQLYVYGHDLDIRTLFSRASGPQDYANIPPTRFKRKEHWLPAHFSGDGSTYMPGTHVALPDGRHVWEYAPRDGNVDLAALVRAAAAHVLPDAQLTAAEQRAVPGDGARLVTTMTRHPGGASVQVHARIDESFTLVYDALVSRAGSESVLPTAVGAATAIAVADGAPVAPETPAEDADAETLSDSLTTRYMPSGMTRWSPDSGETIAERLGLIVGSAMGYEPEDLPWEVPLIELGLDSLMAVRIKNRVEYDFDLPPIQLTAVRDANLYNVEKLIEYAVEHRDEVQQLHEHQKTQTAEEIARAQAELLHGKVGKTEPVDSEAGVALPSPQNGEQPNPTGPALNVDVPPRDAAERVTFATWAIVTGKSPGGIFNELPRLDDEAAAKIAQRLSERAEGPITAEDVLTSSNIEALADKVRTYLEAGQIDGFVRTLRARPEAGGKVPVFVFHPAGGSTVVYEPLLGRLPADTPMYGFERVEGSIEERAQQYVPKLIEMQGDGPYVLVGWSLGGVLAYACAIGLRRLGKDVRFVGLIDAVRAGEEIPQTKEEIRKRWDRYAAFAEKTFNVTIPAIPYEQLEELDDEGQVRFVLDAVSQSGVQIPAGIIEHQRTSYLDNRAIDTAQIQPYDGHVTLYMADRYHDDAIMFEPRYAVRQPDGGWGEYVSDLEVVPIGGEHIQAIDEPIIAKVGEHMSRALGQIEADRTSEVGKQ
UniProt P9WNZ1, whole entry: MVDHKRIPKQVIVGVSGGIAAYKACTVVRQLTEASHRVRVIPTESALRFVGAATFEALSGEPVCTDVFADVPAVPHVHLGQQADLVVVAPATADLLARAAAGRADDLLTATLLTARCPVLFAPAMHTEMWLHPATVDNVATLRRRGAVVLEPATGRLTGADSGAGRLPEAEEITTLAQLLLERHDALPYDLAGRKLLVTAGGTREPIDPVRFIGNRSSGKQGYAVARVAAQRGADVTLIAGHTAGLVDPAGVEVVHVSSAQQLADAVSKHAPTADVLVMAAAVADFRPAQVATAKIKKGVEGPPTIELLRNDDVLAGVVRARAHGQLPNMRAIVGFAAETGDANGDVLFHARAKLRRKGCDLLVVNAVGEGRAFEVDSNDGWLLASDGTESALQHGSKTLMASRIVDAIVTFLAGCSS
UniProt P9WFT3, whole entry: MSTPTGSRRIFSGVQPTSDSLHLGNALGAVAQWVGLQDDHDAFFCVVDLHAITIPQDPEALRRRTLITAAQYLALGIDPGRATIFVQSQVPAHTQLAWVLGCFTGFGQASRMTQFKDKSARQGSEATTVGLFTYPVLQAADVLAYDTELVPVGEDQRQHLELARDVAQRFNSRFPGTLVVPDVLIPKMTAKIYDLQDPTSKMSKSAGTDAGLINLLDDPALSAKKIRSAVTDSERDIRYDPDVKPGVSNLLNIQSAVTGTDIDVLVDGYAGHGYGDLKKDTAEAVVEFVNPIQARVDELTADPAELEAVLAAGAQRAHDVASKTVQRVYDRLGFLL
UniProt A4I591, 1-473: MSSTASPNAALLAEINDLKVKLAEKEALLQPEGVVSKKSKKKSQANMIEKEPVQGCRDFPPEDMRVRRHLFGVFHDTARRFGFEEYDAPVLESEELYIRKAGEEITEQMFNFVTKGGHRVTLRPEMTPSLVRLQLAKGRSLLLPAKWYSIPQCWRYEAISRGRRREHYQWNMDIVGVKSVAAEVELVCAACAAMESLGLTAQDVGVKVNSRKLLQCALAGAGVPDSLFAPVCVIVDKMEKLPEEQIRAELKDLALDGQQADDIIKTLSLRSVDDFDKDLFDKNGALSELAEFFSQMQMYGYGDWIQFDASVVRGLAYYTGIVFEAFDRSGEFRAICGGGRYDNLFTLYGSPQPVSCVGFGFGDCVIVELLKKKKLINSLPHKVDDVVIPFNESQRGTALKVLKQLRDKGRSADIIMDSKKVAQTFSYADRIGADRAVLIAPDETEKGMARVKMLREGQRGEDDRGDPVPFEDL
UniProt Q4DA54, 1-478: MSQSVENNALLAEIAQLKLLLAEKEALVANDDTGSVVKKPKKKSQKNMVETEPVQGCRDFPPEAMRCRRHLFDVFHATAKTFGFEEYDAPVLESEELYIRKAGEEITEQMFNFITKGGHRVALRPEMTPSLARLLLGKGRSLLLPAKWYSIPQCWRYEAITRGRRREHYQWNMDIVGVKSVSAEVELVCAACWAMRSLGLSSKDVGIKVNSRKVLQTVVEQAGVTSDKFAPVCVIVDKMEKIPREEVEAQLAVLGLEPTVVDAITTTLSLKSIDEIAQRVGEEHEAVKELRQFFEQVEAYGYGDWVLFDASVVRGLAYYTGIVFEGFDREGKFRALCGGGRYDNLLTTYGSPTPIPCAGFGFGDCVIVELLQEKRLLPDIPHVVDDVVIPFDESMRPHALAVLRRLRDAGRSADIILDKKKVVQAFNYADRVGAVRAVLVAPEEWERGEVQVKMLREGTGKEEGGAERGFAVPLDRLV

Measurements from “University of Dundee, Small-Polar-MMV Screening Library” (2021), ChEMBL document CHEMBL3988442.

Pks13 thioesterase: 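Polyketide synthase Pks13, Mycobacterium tuberculosis (UniProt I6X8D2). Enzyme assay of the thioesterase domain of polyketide synthase 13; the read-out is not stated. Concentration: 30 µM. Higher reads as stronger inhibition (inferred from which compounds were picked for retests). Of about 67,000 compounds tested this way, about 300 (0.46%) reached 50% or more in at least one test.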
Toxoplasma: 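Assay of Toxoplasma gondii numbers, read through their beta-galactosidase reporter with a colour substrate. Tested at 10 µM. The record gives no direction; the compounds picked for IC50 retests had high values, so higher reads as fewer parasites. About 67,000 compounds were tested under these conditions; 0.38% (about 260) showed 50% or more at least once.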
CoaBC: 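Coenzyme A biosynthesis protein CoaBC, Mycobacterium tuberculosis (UniProt P9WNZ1). Enzyme assay of CoaBC with a phosphate dye (Biomol Green) read at 650 nm. Concentration: 30 µM. Higher reads as stronger inhibition, judged from the few compounds that gave an IC50. Most strong results did not repeat in a second test. Size under these conditions: about 67,000 compounds, about 40 of them at 50% or above in at least one test.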
MtTrpRS: 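Tryptophan-tRNA ligase, Mycobacterium tuberculosis (UniProt P9WFT3). Enzyme assay of tryptophanyl-tRNA synthetase; the read-out is not stated. Tested at 10 µM. Direction is not recorded; retested compounds ran higher, which suggests that high means inhibition. Of about 65,000 compounds tested this way, about 64 (0.098%) reached 50% or more in at least one test.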
LiHisRS: 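Histidine-tRNA ligase, Leishmania infantum (UniProt A4I591). Enzyme assay of histidyl-tRNA synthetase; the read-out is not stated. Concentration: 30 µM. Higher reads as stronger inhibition (inferred: compounds with an IC50 in retests scored well above the rest). The assay is labelled LdHisRS but filed under L. infantum. Of about 69,000 compounds tested this way, about 410 (0.6%) reached 50% or more in at least one test.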
TcHisRS: 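Histidine-tRNA ligase, Trypanosoma cruzi CL Brener (UniProt Q4DA54). Enzyme assay of histidyl-tRNA synthetase; the read-out is not stated. Compounds at 30 µM. Higher reads as stronger inhibition (inferred: compounds with an IC50 in retests scored well above the rest). Of about 69,000 compounds tested this way, about 31 (0.045%) reached 50% or more in at least one test.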

Results are given as percent effect.
The controls that fix the scale are not given in the record; negative values are as filed.
The compounds are a random part of those screened.

For COc1cccc(CCC2CCCN(C(=O)c3n[nH]c4c3CCC4)C2)c1 (centres undefined) the result was Pks13 thioesterase: -27.37%; Toxoplasma: 5.77%; CoaBC: 6.183%; MtTrpRS: 0.2322%; LiHisRS: 26.92%; TcHisRS: 24.17%.
For c1ccc(Cn2cc(CNC3CCc4ncnn4C3)cn2)cc1 (centres undefined) the result was Pks13 thioesterase: -15.62%; Toxoplasma: 10.29%; CoaBC: -3.133%; MtTrpRS: -3.606%; LiHisRS: 8.108%; TcHisRS: 1.88%.
For Cc1noc(CN(Cc2cccc(C#N)c2)Cc2ccco2)n1 the result was Pks13 thioesterase: -16.75%; Toxoplasma: 5.968%; CoaBC: -1.272%; MtTrpRS: 2.656%; LiHisRS: 19.64%; TcHisRS: 3.509%.
For Cc1ccc(OC2(C(=O)NC(C)Cc3ccsc3)CCNCC2)cc1 (centres undefined) the result was Pks13 thioesterase: 9.633%; Toxoplasma: 11.24%; CoaBC: 3.083%; MtTrpRS: -3.003%; LiHisRS: 9.677%; TcHisRS: -2.632%.
For O=C(NCCCOCC1CC1)Nc1ccc(F)cc1 the result was Pks13 thioesterase: 5.101%; Toxoplasma: 0.8021%; CoaBC: 0.9823%; MtTrpRS: -4.253%; LiHisRS: 9.649%; TcHisRS: 10.34%.
For NCCn1cc(C(=O)N2CCCCCC2c2ccco2)nn1 (centres undefined) the result was Pks13 thioesterase: -15.2%; Toxoplasma: 8.36%; CoaBC: 7.159%; MtTrpRS: 3.834%; LiHisRS: 19.54%; TcHisRS: 6.186%.
For CCN1c2ccc(-c3cncn3CC(=O)NC(C)(C)C)cc2CC1C (centres undefined) the result was Pks13 thioesterase: -12.77%; CoaBC: 3.337%; MtTrpRS: 1.098%; LiHisRS: 42.07%; TcHisRS: 9.125%.
For [H][C@@]12CCC(=O)N(c3ccccc3)[C@]1([H])CCN2C(=O)c1ccco1 the result was Toxoplasma: 21.45%.
For CN(CC(=O)NC(Cc1ccccc1)C1CCCC1)S(C)(=O)=O (centres undefined) the result was Pks13 thioesterase: -9.281%; Toxoplasma: -7.394%; CoaBC: 1.033%; MtTrpRS: 1.3%; LiHisRS: 16.44%; TcHisRS: -3.175%.
For [H][C@]12CCCC(=O)N[C@@]1(C)CCCCN2C(=O)CCn1nccc1C the result was Toxoplasma: -13.91%.
For O=C(C1CC1)N1CCCC1c1nnc2n1CCCCC2 (centres undefined) the result was Pks13 thioesterase: 2.971%; Toxoplasma: -43.01%; CoaBC: 2.538%; MtTrpRS: -0.3228%; LiHisRS: 17.65%; TcHisRS: 4.933%.
For O=C(CNc1ccc(OCC2CCOCC2)cc1)NCc1ccco1 the result was Pks13 thioesterase: -2.832%; Toxoplasma: -8.168%; CoaBC: 3.388%; MtTrpRS: 1.989%; LiHisRS: 10.84%; TcHisRS: 8.458%.
For O=C1CCCN1Cc1ncn2c1CN(C(=O)Cc1cccs1)CCC2 the result was Pks13 thioesterase: -8.365%; Toxoplasma: 11.81%; CoaBC: -9.63%; MtTrpRS: -6.624%; LiHisRS: 4.167%; TcHisRS: 6.542%.
For COc1cccc(CC(=O)N2CCCN(c3ccnc(C)c3)CC2)c1 the result was Pks13 thioesterase: -12.36%; Toxoplasma: -2.291%; CoaBC: 0.2439%; MtTrpRS: 1.053%; LiHisRS: 17.6%; TcHisRS: 0.9804%.
For [H][C@@]12CN(Cc3cccc(C)n3)C[C@]1([H])N(CCCN1CCOCC1)C(=O)O2 the result was Toxoplasma: -0.4405%.
For CN(CC(=O)N1CCN(c2ccccc2F)CC1)c1cnccn1 the result was Pks13 thioesterase: 5.316%; Toxoplasma: 4.523%; CoaBC: 10.79%; MtTrpRS: -2.624%; LiHisRS: 15.38%; TcHisRS: 0.3831%.
For O=C(CCc1cc2n(n1)CCCN(C(=O)c1ccncc1)C2)NC1CC1 the result was Pks13 thioesterase: -4.478%; Toxoplasma: -2.262%; CoaBC: 0.1203%; MtTrpRS: 2.348%; LiHisRS: 6.742%; TcHisRS: 3.518%.
For Cc1nc(NCCCn2cccn2)c2c(n1)c(C)nn2C the result was Pks13 thioesterase: -2.671%; Toxoplasma: 12.46%; CoaBC: 2.771%; MtTrpRS: -2.591%; LiHisRS: 17.24%; TcHisRS: 5.217%.

2 of the entries, repeated:

Compound	Pks13 thioesterase	Toxoplasma	CoaBC	MtTrpRS	LiHisRS	TcHisRS
O=C(NCCCOCC1CC1)Nc1ccc(F)cc1	5.101	0.8021	0.9823	-4.253	9.649	10.34
COc1cccc(CC(=O)N2CCCN(c3ccnc(C)c3)CC2)c1	-12.36	-2.291	0.2439	1.053	17.6	0.9804